# Experimental data reported in PubChem BioAssay AID2685 (National Center for Advancing Translational Sciences (NCATS), 2010).
# Hit rate of the full screen: of about 320,000 compounds, about 2,100 (0.66%) were called active. Inconclusive results, whose numbers are uncertain, are shown with a selection of clear calls. The call rests on the fitted dose curve; in most records, active means well fitted inhibition curve with a large enough effect in the signal ratio, with a control signal flat (not every such curve was filed as active); inconclusive means small, poorly fitted or top-dose-only effect, or effect the other way, or a change in a side signal; inactive means flat fitted curve, though single readings scatter; the % refers to the signal ratio. Where the call is inconclusive, the potency comes from a doubtful curve fit.
# Test: qHTS Assay for Lipid Storage Modulators in Drosophila S3 Cells
# Conditions: BODIPY lipid droplet fluorescence, 18-24 h, cells fed with added oleic acid; lipid storage change, negative = inhibition: at 46.1 µM (top of the series) unless noted
# In short: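 Laser-scanning cytometry quantifies lipid droplet accumulation (500–530 nm total intensity; droplet/cell object ratio) in oleic acid-fed (400 uM added) Drosophila S3 cells treated with a concentration series. 20 uM Triacsin C defined 100% inhibition.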
# On the % scale 0 is the no-effect control and ±100 the full control effect; potency means the concentration at half of the fitted maximal effect.
SMILES,"lipid storage change, negative = inhibition",Potency
CCN(c1ccccc1)S(=O)(=O)c1ccc(C(=O)Nc2nnc(-c3ccco3)o2)cc1,inconclusive: -18.4%,–
Cc1sc2ncn(CC(=O)NC3CCCCC3)c(=O)c2c1C,inconclusive: -87.5%,–
O=C(CNC(=O)c1cc2ccccc2o1)NCc1cccs1,–,"inconclusive: 29.1 µM [falling, single point]"
CCN1C(=O)/C(=C2/Sc3ccccc3N2CCCS(=O)(=O)O)SC1=S,inconclusive: -31.7%,"inconclusive: 29.1 µM [activator, single point]"
COc1ccc(N2CC(C(=O)Nc3nnc(SCC(=O)NC(C)(C)C)s3)CC2=O)cc1 (centres undefined),–,"inconclusive: 7.31 µM [falling, single point]"
CCOc1ccc(C(=O)CSCC(=O)O)cc1,–,"inconclusive: 0.731 µM [falling, full curve, poor fit]"
CCOC(=O)C1CCCN(CCC(=O)Nc2cc(OC)ccc2OC)C1 (centres undefined),–,"inconclusive: 3.26 µM [activator, full curve]"
CN1C(C(=O)NCc2cccc(C(F)(F)F)c2)CC2Cn3c(nc4ccccc43)C21 (centres undefined),inconclusive: 16.3%,–
Cc1nc2ccc(S(=O)(=O)NCC(=O)N(C)Cc3ccccc3)cc2s1,inconclusive: -4.22%,–
O=c1oc(CCCO)cc2ccc(C#Cc3ccsc3)cc12,inconclusive: -14.3%,–
CCOC(=O)c1nc2ccccc2s1,inconclusive: -1.37%,–
O=C(c1ccccc1)n1ccc(-c2cnc(-c3ccccc3)s2)n1,–,"inconclusive: 2.06 µM [rising, partial curve]"
CC/C(=C/c1sc2ccc(C)cc2[n+]1CCO)SC,inconclusive: 16.8%,–
O=c1[nH]c(C2CCCN(S(=O)(=O)c3cccc(F)c3)C2)nc2c1nnn2Cc1ccccc1 (centres undefined),inactive,–
CC(=O)NCCc1nc2ccccc2n1CCOc1cccc(C)c1,inconclusive: 18.7%,–
COc1ccccc1C(=O)NN1C(=O)/C(=C/c2cccn2C)SC1=S,inconclusive: 0.049%,–
O=C(NCc1cn2ccsc2n1)Nc1cccc(Cl)c1,inconclusive: 7.09%,–
COc1ccc(-c2cc(C(=O)Nc3ccc(O)cc3)c3ccccc3n2)cc1OC,inconclusive: 13%,–
CCOC(=O)c1cc(-c2ccccc2C)nn1Cc1cc(CC)no1,inconclusive: -35.2%,–
CS(=O)(=O)c1ccc(Cl)c(NC(=O)CCCc2nc3ccccc3c(=O)[nH]2)c1,–,"inconclusive: 2.91 µM [rising, partial curve]"
O=C(N/N=C/c1c(Cl)nc2ccccn2c1=O)c1cccnc1,inconclusive: -22%,–
COc1cccc(OC)c1C(=O)Nc1nc2ccc(S(C)(=O)=O)cc2s1,inconclusive: -10.8%,–
Cc1cc(C(=O)CN2C(=O)c3ccccc3C2=O)c(C)n1Cc1cccs1,inconclusive: -20.3%,–
CC(=O)c1ccc(S(=O)(=O)Nc2ccc(-c3cn4c(n3)SCC4)cc2)cc1,inconclusive: 4.41%,–
Fc1ccc(NC(=S)Nc2cc(-c3ccccc3)[nH]n2)cc1Cl,inconclusive: 13.6% [at 9.22 µM],–
CC1CCN(C(=O)c2ccc3c(c2)NC(=O)/C(=C/c2ccccc2)S3)CC1,inactive,–

SMILES,"lipid storage change, negative = inhibition",Potency
CC(C)c1nc(SCC(=O)Nc2cccc(C(F)(F)F)c2)c2c(=O)n(C)c(=O)n(C)c2n1,inconclusive: -17%,–
C/C(=N\NC(N)=O)c1ccc(Cl)cc1,inconclusive: -13.1%,–
NS(=O)(=O)c1ccc(CCNS(=O)(=O)c2cccc3nsnc23)cc1,–,"inconclusive: 6.51 µM [falling, single point]"
COc1cccc(/C=C/C(=O)OCC(=O)c2ccc3c(c2)NC(=O)CO3)c1,inconclusive: -64.7%,–
CCCCCn1c(=O)[nH]c2cc(C(=O)NCc3ccccn3)ccc2c1=O,–,"inconclusive: 0.0052 µM [falling, full curve, poor fit]"
O=S(=O)(c1ccccc1)N(CC1CO1)c1ccccc1 (centres undefined),–,"inconclusive: 29.1 µM [falling, single point]"
COC(=O)C(NC(=O)COc1ccccc1)(Nc1nc2c(s1)CCCC2)C(F)(F)F (centres undefined),inconclusive: -17.4%,–
N#Cc1cc(C#N)c(SCC(=O)N2CC(=O)Nc3ccccc32)nc1N,inconclusive: 11.2%,–
COc1ccccc1NS(=O)(=O)c1cc(NC(=O)c2sccc2C)ccc1N1CCOCC1,inconclusive: 25.5%,–
O=C(COc1ccccc1C(=O)NCc1ccncc1)Nc1ccc(Br)cc1,–,"inconclusive: 8.2 µM [rising, partial curve]"
CCOc1ccc(N(CC(=O)N2CCN(c3ccccc3OC)CC2)S(=O)(=O)c2ccc(F)cc2)cc1,inconclusive: -32.1%,–
CCCCNC(=O)CSc1nc(N)c(C(=O)Nc2ccc(OC)cc2)s1,inconclusive: 14%,–
Cc1ccnc(NC(=O)c2ccccc2NC(=O)c2ccccc2)c1,inconclusive: 10.4%,–
CCc1noc(N)c1C(=O)Nc1ccc(Cl)cc1,inconclusive: 34.7%,–
CC(C)Oc1ccc(-c2cc(=O)[nH]c(=O)[nH]2)cc1,inconclusive: 2.75%,–
N#Cc1ccccc1OCC(=O)N1CCN(C(=O)c2ccco2)CC1,inconclusive: -15.5%,–
O=C(CCCc1ccccc1)NCCC1=CCCCC1,–,"inconclusive: 0.58 µM [falling, full curve]"
CCC(CC)c1nnc(NC(=O)/C=C/c2ccco2)s1,–,"inconclusive: 3.26 µM [falling, partial curve, poor fit]"
COc1ccc(CN2CCN(C(=O)Cn3ncn4cccc4c3=O)CC2)c(OC)c1OC,inconclusive: 41.3%,–
O=C(Nc1c(-c2ccccc2)nc2sccn12)c1ccccc1,inconclusive: 62.5%,–
COc1ccc2[nH]c(C(=O)O)c(NC(=O)c3cc(OC)c(OC)c(OC)c3)c2c1,inconclusive: 11%,–
COc1cc2c(cc1OC)CN(C(=O)c1ccc([N+](=O)[O-])o1)CC2,inconclusive: -29.9%,–
CCc1ccc(C(=O)N/N=C(\C)c2ccncc2)s1,inconclusive: -1.62%,–
CCOc1ccc(OCCC(=O)OCC(=O)N2CCN(S(=O)(=O)c3ccc(C)cc3)CC2)cc1,inconclusive,–
CCn1cc(CN2CCCC(CNS(=O)(=O)c3cccc4cccnc34)C2)cn1 (centres undefined),inconclusive: -1.07%,–
CCOC(=O)c1sc(NC(C)=O)nc1-c1ccccc1,inconclusive: -32.9%,–

SMILES,"lipid storage change, negative = inhibition",Potency
CCc1nccn1S(=O)(=O)c1cc(Br)ccc1OC,inconclusive: -97.7%,–
COc1cc(S(=O)(=O)N2CCCCC2)ccc1NC(=O)c1ccncc1,inconclusive: -62%,–
CN1C/C(=C/c2ccsc2)C(=O)/C(=C/c2ccsc2)C1,–,"inconclusive: 20.6 µM [falling, partial curve]"
Cc1nc(-c2ccc(NC(=O)c3ccccc3Br)cc2)cs1,–,"inconclusive: 29.1 µM [activator, single point]"
Cc1cc(NC(=O)C2C3C(=O)N(Cc4ccc(Cl)cc4)C(C(=O)NCc4ccccc4)C34C=CC2(C)O4)no1 (centres undefined),–,"inconclusive: 14.6 µM [rising, partial curve]"
Cc1ccccc1CN1CCN(Cc2cc(=O)c3ccccc3[nH]2)CC1CCO (centres undefined),inconclusive: 34.5%,–
CN(C)/N=C/C=C1\CCC/C(=C\c2ccc(F)c(F)c2)C1=O,inconclusive: -5.2%,–
Cc1noc(C)c1C(=O)Nc1nc(-c2cccs2)cs1,–,"inconclusive: 29.1 µM [falling, single point]"
COc1cc(OC)cc(C2=NCCN2)c1,inconclusive: -2.39%,–
COc1ccc(NC(=O)c2ccccc2[N+](=O)[O-])cc1OC,inconclusive: -1.73%,–
COc1ccc(C(CNC(=O)COc2ccccc2C)N2CCCC2)cc1 (centres undefined),inconclusive: -39.6%,–
COc1cccc(OCc2cc(C(=O)N3CCCC3c3ccccn3)no2)c1 (centres undefined),inconclusive: -24.9%,–
CCCNC(=O)CCn1nc(-c2ccc(Cl)cc2)c2ccccc2c1=O,inconclusive: 19.2%,–
C=Cn1cc[n+](CC(=O)c2ccc(Cl)cc2)c1,inconclusive: 23.8%,–
COc1ccc(C(CNC(=O)c2cccc(S(=O)(=O)N3CCCC(C)C3)c2)N(C)C)cc1 (centres undefined),inconclusive: 12.1%,–
COc1cc(/C=N/NC(=O)c2ccncc2)ccc1OCC(=O)Nc1ccc(C)c(C)c1,inconclusive: 26.9%,–
CC(/C=N/N1CCN(Cc2ccccc2)CC1)=C\c1ccccc1,–,"inconclusive: 2.31 µM [falling, partial curve, poor fit]"
COc1ccc(NS(=O)(=O)c2cccs2)cc1S(=O)(=O)N1CCCCC1,inconclusive,–
O=C(Nc1ccc(N2CCCC2)cc1)c1cc(Cl)ccc1Cl,inconclusive: 42.9%,–
COc1ccc(C(C)(C)C)cc1NC(=O)c1cc(S(=O)(=O)N(C)C)ccc1N1CCCC1,–,active: 18.4 µM
COC(=O)c1ccc(Cl)c(NC(=O)CN(c2ccccc2)S(=O)(=O)c2ccc(OC)cc2)c1,inactive,–
COc1ccc(NC(=O)C2CCN(C(=O)c3ccco3)CC2)c(OC)c1,–,"inconclusive: 6.51 µM [activator, single point]"
CC(C)c1ccc(NC(=O)c2cccc(NC3=NC4CS(=O)(=O)CC4S3)c2)cc1 (centres undefined),–,"inconclusive: 29.1 µM [falling, single point]"
Cn1cccc1Cc1nnc(SCC(=O)Nc2ccc3c(c2)OCO3)n1-c1ccc(F)cc1,inconclusive: 33.8%,–
Cc1ccc(OCCC(=O)OCC(=O)Nc2cc(C)nn2-c2ccccc2)cc1,–,"inconclusive: 25.9 µM [rising, partial curve, poor fit]"
O=C(OCCn1cncn1)c1cc2ccccc2oc1=O,inconclusive: -20%,–

# In a second layout: 5 of the compounds above
SMILES | lipid storage change, negative = inhibition | Potency
CCc1nccn1S(=O)(=O)c1cc(Br)ccc1OC | inconclusive: -97.7% | –
Cc1noc(C)c1C(=O)Nc1nc(-c2cccs2)cs1 | – | inconclusive: 29.1 µM [falling, single point]
COc1ccc(C(C)(C)C)cc1NC(=O)c1cc(S(=O)(=O)N(C)C)ccc1N1CCCC1 | – | active: 18.4 µM
Cn1cccc1Cc1nnc(SCC(=O)Nc2ccc3c(c2)OCO3)n1-c1ccc(F)cc1 | inconclusive: 33.8% | –
Cc1ccc(OCCC(=O)OCC(=O)Nc2cc(C)nn2-c2ccccc2)cc1 | – | inconclusive: 25.9 µM [rising, partial curve, poor fit]
